System: menstrual bleeding
Experiment: Effects on menstrual bleeding patterns (electronic daily diary; bleeding/spotting days, intensity, amenorrhea, resumption of menses)
Format: in vivo, human

COc1cccc(-c2c(C)n(Cc3c(F)cccc3C(F)(F)F)c(=O)n(C[C@H](NCCCC(=O)O)c3ccccc3)c2=O)c1F [Compound A, 4-((R)-2-[5-(2-fluoro-3-methoxy-phenyl)-3-(2-fluoro-6-trifluoromethyl-benzyl)-4-methyl-2,6-dioxo-3,6-dihydro-2H-pyrimidin-1-yl]-1-phenyl-ethylamino)-butyric acid]
resumption of menses after stopping, % of women (after 6 months of therapy, 150 mg once daily, within 1 month): 59%
resumption of menses after stopping, % of women (after 6 months of therapy, 150 mg once daily, within 2 months): 87%
resumption of menses after stopping, % of women (after 6 months of therapy, 150 mg once daily, within 6 months): 95%
resumption of menses after stopping, % of women (after 6 months of therapy, 200 mg twice daily, within 1 month): 60%
resumption of menses after stopping, % of women (after 6 months of therapy, 200 mg twice daily, within 2 months): 88%
resumption of menses after stopping, % of women (after 6 months of therapy, 200 mg twice daily, within 6 months): 97%
resumption of menses after stopping, % of women (after 12 months of therapy, 150 mg once daily, within 1 month): 77%
resumption of menses after stopping, % of women (after 12 months of therapy, 150 mg once daily, within 2 months): 95%
resumption of menses after stopping, % of women (after 12 months of therapy, 150 mg once daily, within 6 months): 98%
resumption of menses after stopping, % of women (after 12 months of therapy, 200 mg twice daily, within 1 month): 55%
resumption of menses after stopping, % of women (after 12 months of therapy, 200 mg twice daily, within 2 months): 91%
resumption of menses after stopping, % of women (after 12 months of therapy, 200 mg twice daily, within 6 months): 96%

From patent publication US12102637B2, “Pharmaceutical formulations for treating endometriosis, uterine fibroids, polycystic ovary syndrome or adenomyosis” (AbbVie Inc., priority 2017, dated 2024)
